Test: Body weight and BMI of study participants
Format: in vivo, human
Details: all 44 participants (50 mg and 200 mg groups), mean, time 2 (6 months)
Procedure: Then, the patients were divided into two groups (randomly assigned) according to the treatment given to them. 22 patients were given treatment 50 mg RSV micronized formulation, Evelor capsules once daily, (Group A) and 22 patients were given treatment 200 mg RSV micronized formulation, Evelor capsules, once daily, (Group B). The observation period lasted for 6 months. There was a clinical examination, blood tests and an abdominal ultrasound at the beginning of the study (time 1) and in 6 months (time 2). All patients were on low fat diet and they were being followed up by nutritionist.

## Oc1ccc(/C=C/c2cc(O)cc(O)c2)cc1 [Resveratrol, resveratrol]
  BMI At time 2: 27.93 kg/cm^2
  Weight At time 2: 82.33 kg

Source: patent publication US11234943B2, “Use of reservatrol for the treatment of non-alcoholic fatty liver disease (NAFLD)” (priority 2016, dated 2022)
